This note sets out measurements from publication PMC7862700.

Sequences of proteins named here, by UniProt entry; tags and fusion partners are left off. A change or cut given only in a name is not applied to a line headed by its entry.
UniProt P41161: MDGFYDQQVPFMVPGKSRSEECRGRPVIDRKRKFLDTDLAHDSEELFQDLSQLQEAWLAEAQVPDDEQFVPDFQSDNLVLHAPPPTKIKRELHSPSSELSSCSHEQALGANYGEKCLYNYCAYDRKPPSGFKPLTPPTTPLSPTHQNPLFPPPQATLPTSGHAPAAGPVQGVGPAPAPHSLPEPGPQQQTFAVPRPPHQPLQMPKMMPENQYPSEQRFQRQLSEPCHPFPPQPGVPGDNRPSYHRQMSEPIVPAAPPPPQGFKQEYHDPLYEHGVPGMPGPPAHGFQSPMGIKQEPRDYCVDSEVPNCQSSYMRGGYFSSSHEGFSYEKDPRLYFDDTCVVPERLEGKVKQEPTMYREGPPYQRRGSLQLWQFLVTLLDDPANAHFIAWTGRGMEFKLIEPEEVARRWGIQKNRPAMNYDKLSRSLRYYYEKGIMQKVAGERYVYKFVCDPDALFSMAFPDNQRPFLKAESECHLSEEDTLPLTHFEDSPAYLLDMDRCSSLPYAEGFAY
UniProt Q01892: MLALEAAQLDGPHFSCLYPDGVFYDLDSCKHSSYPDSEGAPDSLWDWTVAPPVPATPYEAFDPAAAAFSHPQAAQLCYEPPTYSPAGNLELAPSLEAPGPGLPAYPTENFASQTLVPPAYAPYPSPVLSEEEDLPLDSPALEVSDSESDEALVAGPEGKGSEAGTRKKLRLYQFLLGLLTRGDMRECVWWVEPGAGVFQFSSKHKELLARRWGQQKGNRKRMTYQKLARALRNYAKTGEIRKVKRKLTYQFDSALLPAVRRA

Common to all, as to assay: DAPPL (digital affinity profiling via proximity ligation, sequencing)
Conditions in all cases: 10 mM Tris-HCl pH 7.5, 50 mM NaCl, 1 mM DTT, 4% glycerol, room temperature, 30 min; GST-TFs on glutathione beads, 16-mer random dsDNA library, 0.1% …; high values mean tight binding; double strand, one strand shown; scale: fold enrichment (6-mer frequency, TF over GST control)

The target in one assay is ETV5 (UniProt P41161).
Another assay has as its target T1, ETV2 (UniProt O00321).
T1 sequence: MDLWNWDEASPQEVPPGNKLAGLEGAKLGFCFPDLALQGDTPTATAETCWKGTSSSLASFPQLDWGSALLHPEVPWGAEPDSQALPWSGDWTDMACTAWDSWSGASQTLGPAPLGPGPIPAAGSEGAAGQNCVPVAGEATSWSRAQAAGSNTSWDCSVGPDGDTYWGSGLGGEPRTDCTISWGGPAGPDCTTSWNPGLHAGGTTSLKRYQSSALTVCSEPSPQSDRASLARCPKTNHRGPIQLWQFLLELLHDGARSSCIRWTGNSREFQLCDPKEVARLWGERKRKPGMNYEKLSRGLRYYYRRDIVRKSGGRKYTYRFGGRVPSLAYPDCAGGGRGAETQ

A further assay has as its target T2, ETV3L (UniProt Q6ZN32).
T2 sequence: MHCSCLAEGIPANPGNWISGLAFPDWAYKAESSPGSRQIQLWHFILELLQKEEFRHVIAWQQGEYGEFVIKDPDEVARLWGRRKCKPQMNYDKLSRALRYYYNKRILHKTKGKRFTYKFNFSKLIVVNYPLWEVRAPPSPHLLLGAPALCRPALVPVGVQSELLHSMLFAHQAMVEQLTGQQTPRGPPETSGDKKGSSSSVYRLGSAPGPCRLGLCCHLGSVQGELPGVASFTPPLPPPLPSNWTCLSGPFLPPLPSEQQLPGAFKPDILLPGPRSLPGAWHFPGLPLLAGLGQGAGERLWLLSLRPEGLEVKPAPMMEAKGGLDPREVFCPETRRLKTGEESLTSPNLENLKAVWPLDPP

The target in a further assay is SPIB (UniProt Q01892).
The target of a further assay is T3, EHF (UniProt Q9NZC4).
T3 sequence: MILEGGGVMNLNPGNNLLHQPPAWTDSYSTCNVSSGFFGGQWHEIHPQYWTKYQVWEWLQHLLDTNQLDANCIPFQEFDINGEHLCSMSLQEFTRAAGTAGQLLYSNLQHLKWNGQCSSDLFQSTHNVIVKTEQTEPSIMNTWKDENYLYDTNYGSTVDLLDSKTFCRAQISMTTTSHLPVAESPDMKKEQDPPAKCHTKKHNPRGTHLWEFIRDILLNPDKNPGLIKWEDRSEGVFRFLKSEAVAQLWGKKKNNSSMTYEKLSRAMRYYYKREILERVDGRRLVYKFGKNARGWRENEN

The list shows a part of the results, in another mix than the full data. At the low end of the ranking the order means little.

For the sequence AATCTA, the binding signal came out at 1.12 in the assay with ETV5 and 1.09 with ETV2.

In the case of CGTACA, the results for the binding signal in the assay with ETV5 and in the assay with ETV2 were 1.22 and 1.36, respectively.

For ACGCCT, the figures for the binding signal with ETV5 and with ETV2 were 1.2 and 1.29, respectively.

With AGTTTT, the figures for the binding signal with ETV5, with ETV2 and in the assay with ETV3L were 0.991, 0.909 and 0.943, respectively.

ATCTGC: the binding signal with ETV5 came out at 1.46; with ETV2 it was 1.44.

Consider AGCATT, for which the binding signal stood at 1.03 with ETV5 and 1.06 in the assay with ETV2.

For the sequence CATGAT, the binding signal is 1.08 with ETV5 and 0.906 with ETV2.

As for CGCAAC, the binding signal with SPIB was 0.981; with ETV5, 0.977; in the assay with ETV2 it was 0.932; in the assay with ETV3L, 0.953.

Turning to CTGCAT, the binding signal with EHF turned out to be 1.47; in the assay with ETV5 it was 1.46; with ETV2, 1.28.

For GTTTGC, the binding signal with EHF came out at 1.11; in the assay with ETV5, 0.977; with ETV2, 0.991.

GCCCGA: the binding signal with EHF stood at 0.994; with SPIB, 0.891; with ETV5 it was 0.909; with ETV2, 0.861; in the assay with ETV3L, 1.01.

Consider AGAAAC, for which the binding signal turned out to be 0.977 with EHF; 0.948 with SPIB; 0.977 with ETV5; 0.89 with ETV2; 0.971 with ETV3L.

Turning to ATTGAG, the binding signal with SPIB was determined as 0.939; with ETV5, 0.994; with ETV2 it was 0.935; in the assay with ETV3L, 0.996.

Regarding CTTCCG, the binding signal in the assay with EHF is 7.93; in the assay with ETV5, 8.45; in the assay with ETV2, 7.7.

In the case of TGGCGT, the binding signal was determined as 0.906 in the assay with EHF; 0.942 with SPIB; 0.941 in the assay with ETV5; 1.05 with ETV2; 0.996 with ETV3L.

As to ACCGTT, the binding signal was found to be 0.861 with EHF; 0.944 with SPIB; 0.981 with ETV5; 0.901 with ETV2; 0.934 in the assay with ETV3L.

For the sequence CACCCA, the binding signal with EHF was determined as 0.963; with SPIB, 1.03; with ETV5 it was 0.968; with ETV2, 0.976; with ETV3L, 0.976.

On to GGATGT, for which the binding signal stood at 1.74 in the assay with EHF, 1.77 in the assay with ETV5 and 1.44 with ETV2.

For the sequence GCCGCA, the binding signal amounted to 0.954 in the assay with SPIB, 0.931 in the assay with ETV5 and 0.91 with ETV2.

For TCAGCC, the binding signal with EHF was 0.97; with ETV5, 0.961; with ETV2 it was 1.03.

As for TGGGCA, the binding signal in the assay with EHF was 0.954; with SPIB, 0.984; with ETV5, 1.04; with ETV2 it was 0.818.

On to TTGACG, for which the binding signal with EHF was determined as 1.2; with ETV5 it was 0.985; in the assay with ETV2, 1.23.

Take GGATCT: the binding signal with EHF turned out to be 0.97; with SPIB it was 1.02; with ETV5, 0.997; in the assay with ETV2, 0.962.

As to ACTGAC, the binding signal with SPIB was 1.21; with ETV5 it was 1.19; with ETV2, 1.3; in the assay with ETV3L, 1.19.

GCTTTT: the binding signal worked out at 0.99 in the assay with EHF, 1.09 with ETV5 and 0.97 with ETV2.

CCACAG: the binding signal in the assay with EHF stood at 0.998; with SPIB, 0.921; with ETV5, 0.928; in the assay with ETV2, 0.923; with ETV3L, 0.922.

For the sequence CTCACA, the binding signal with EHF was determined as 1.42; with ETV5 it was 1.31; with ETV2, 1.35; with ETV3L it was 1.38.

With GCTCAC, the binding signal turned out to be 1.51 with EHF; 1.44 with SPIB; 1.47 with ETV5; 1.63 with ETV2; 1.57 in the assay with ETV3L.

For the sequence GCGTCC, the binding signal amounted to 1.22 with EHF, 1.3 in the assay with SPIB, 1.16 with ETV5 and 1.08 with ETV2.

In the case of ATGGGG, the binding signal worked out at 1.11 with EHF; 1.14 with SPIB; 0.986 with ETV5; 1.16 with ETV2; 1.16 with ETV3L.

Turning to ATTTTG, the binding signal with EHF was 1.3; with ETV5, 1.28; with ETV2 it was 1.33.

As for GATGGG, the binding signal with EHF came out at 1.02; in the assay with ETV5 it was 0.929; with ETV2 it was 0.94; in the assay with ETV3L, 1.02.

Regarding GTCACG, the binding signal is 0.992 with SPIB, 0.949 in the assay with ETV5, 0.897 with ETV2 and 0.996 in the assay with ETV3L.

As for AGAACA, the binding signal was 0.985 in the assay with SPIB, 0.963 with ETV5, 1.03 in the assay with ETV2 and 1.01 with ETV3L.

Turning to AATGGA, the binding signal with EHF was found to be 0.991; with ETV5, 1.05; in the assay with ETV2, 0.979.

Turning to ATTTAG, the binding signal with EHF came out at 1.14; with SPIB, 1.16; in the assay with ETV5, 1.06; in the assay with ETV2, 1.3.

Regarding CCATTA, the binding signal in the assay with EHF was found to be 1.06; with ETV5, 1.06; in the assay with ETV2, 1.15.

On to ACATAG, for which the binding signal was 1.01 with SPIB, 1.08 with ETV5, 1.11 with ETV2 and 0.964 in the assay with ETV3L.

Turning to TCAACA, the binding signal with EHF turned out to be 1.05; in the assay with ETV5, 1.04; with ETV2, 0.95.

For the sequence TGCCGG, the binding signal is 1.03 with EHF, 1.04 in the assay with ETV5, 0.889 with ETV2 and 0.954 with ETV3L.

On to AACTAT, for which the binding signal amounted to 1.29 with SPIB, 1.37 in the assay with ETV5 and 1.49 with ETV2.

As for CGCCAT, the binding signal in the assay with SPIB worked out at 0.984; with ETV5 it was 0.98; with ETV2, 0.866; with ETV3L, 1.08.

Consider GCTGCC, for which the binding signal in the assay with EHF stood at 1.24; with ETV5, 1.04; in the assay with ETV2 it was 0.919; with ETV3L, 1.03.

For the sequence TCCTGC, the binding signal in the assay with EHF is 1.53; with SPIB it was 1.81; in the assay with ETV5, 1.83; with ETV2, 1.49; with ETV3L, 1.71.

As for GATACA, the binding signal in the assay with EHF stood at 0.982; in the assay with SPIB it was 0.933; with ETV5, 0.973; with ETV2, 0.978; with ETV3L, 1.05.

In the case of TCGAGC, the binding signal with EHF was found to be 0.924; with ETV5, 0.992; with ETV2, 1.04.

Consider TGAACA, for which the values for the binding signal with SPIB, in the assay with ETV5 and in the assay with ETV2 were 1.23, 1.2 and 1.27, respectively.

On to CACCCC, for which the binding signal with ETV5 came out at 1.18; with ETV3L, 1.34.

Regarding TAACTT, the binding signal amounted to 1.45 with ETV5 and 1.47 in the assay with ETV3L.
